Assay results from patent US20200325236A1.

Key:
[1] = biological target: cynomolgus monkey 4-1BB protein (cynomolgus monkey); test: ELISA, plate coated with cynomolgus monkey 4-1BB according to paragraph 93 (sheet legend: 'Rhesus 4-1BB'), 1 ug/mL, HRP goat anti-human IgG, OD 450 nm
[2] = biological target: cynomolgus monkey 4-1BB protein (cynomolgus monkey); test: ELISA, cynomolgus monkey 4-1BB coated at 1 ug/mL

B1: ab1 chimeric antibody (anti-human 4-1BB antibody ab1) (antibody, human IgG1, V domains shown)
VH: QVQLQQSGAELVRPGTSVKISCKASGYAFTNYWLGWVKQRPGHGLEWIGDIYPGNGNSYYNEKFKGRATLTADKSSSTVYMQLSSLTSEDSVVYFCTRSSSYYRDVMDYWGQGTSVTVSS
VL: DIQMTQSPASLSASVGETVTITCRASENIYSYLVWYQQKQGKSPQLLVYNAKTLAEGVSSRFSGSGSGTQFSLKINSLQPEDFGSYYCQHHYGTPLTFGAGTKLELKR
binding [1]: binds | binding [2]: binds

These are yes or no findings as the source states them, for the method shown. A result given as binding can be weak or reduced; the word gives no strength.
